PubChem BioAssay AID1259282, Sanger Institute, 2017
Screen: 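Kinase knock-downs that work with targeted colorectal cancer drugs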 (primary screen). System: DIFI human colorectal cancer cell line. Reagents: siRNA pool against human genes. Treatment: anchor drug at a mild dose (BYL719 1 µM, cetuximab 5 µg/ml, trametinib 10 nM) or DMSO vehicle; exposure time not given. Read-out: 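Viability relative to non-targeting pool wells, replicate mean, in DMSO or low-dose BYL719, cetuximab or trametinib; robust z-score without drug; synergy score per drug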. Scale: robust z-score, knock-down alone: higher = more viable cells than typical knock-down; viability, knock-down alone: higher = more viable cells. Units: viability, knock-down alone in fraction of control. Hit rule: 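Essential when the robust z-score of the knock-down without drug falls below -3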. Calls: active = essential (knock-down alone, z below -3); inactive = not essential.
Shown is one part, drawn at random, of 794 reagents. In the full data, 11 (1.4%) were called active. 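Calls flag knock-downs that lower viability without drug; drug synergy appears only in the synergy scores; exposure time not stated.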 Entries without a mark were called inactive. Viability is capped at 1. Further read-outs or replicates are left out here. Not given: the amount of reagent, the time to read-out.

{"gene": "SNRK (SNF related kinase)", "robust z-score, knock-down alone": -0.967, "viability, knock-down alone": 0.756}
{"gene": "PKIA (cAMP-dependent protein kinase inhibitor alpha)", "robust z-score, knock-down alone": 0.715, "viability, knock-down alone": 1}
{"gene": "COMMD3 (COMM domain containing 3)", "robust z-score, knock-down alone": 0.0848, "viability, knock-down alone": 0.908}
{"gene": "MAP3K6 (mitogen-activated protein kinase kinase kinase 6)", "robust z-score, knock-down alone": 0.715, "viability, knock-down alone": 1}

2 entries from above, sorted by “robust z-score, knock-down alone”, ascending:
{"gene": "COMMD3 (COMM domain containing 3)", "robust z-score, knock-down alone": 0.0848, "viability, knock-down alone": 0.908}
{"gene": "MAP3K6 (mitogen-activated protein kinase kinase kinase 6)", "robust z-score, knock-down alone": 0.715, "viability, knock-down alone": 1}

Additional records follow.
{"gene": "CASK (calcium/calmodulin dependent serine protein kinase)", "robust z-score, knock-down alone": -0.731, "viability, knock-down alone": 0.79}
{"gene": "TNK1 (tyrosine kinase non receptor 1)", "robust z-score, knock-down alone": -0.151, "viability, knock-down alone": 0.874}
{"gene": "AKAP9 (A-kinase anchoring protein 9)", "robust z-score, knock-down alone": -1.09, "viability, knock-down alone": 0.737}
{"gene": "LIMK1 (LIM domain kinase 1)", "robust z-score, knock-down alone": 0.715, "viability, knock-down alone": 1}
{"gene": "CSNK1G3 (casein kinase 1 gamma 3)", "robust z-score, knock-down alone": 0.715, "viability, knock-down alone": 1}
{"gene": "NME4 (NME/NM23 nucleoside diphosphate kinase 4)", "robust z-score, knock-down alone": 0.715, "viability, knock-down alone": 1}
{"gene": "DAPK3 (death associated protein kinase 3)", "robust z-score, knock-down alone": -1.68, "viability, knock-down alone": 0.651}
{"gene": "STK35 (serine/threonine kinase 35)", "robust z-score, knock-down alone": 0.715, "viability, knock-down alone": 1}
